In article PMC5457515:
These are yes or no findings as the source states them, for the method shown. In cells and extracts the contact can be indirect. Some results given as binding are weak or reduced against the parent protein; the word gives no strength. For some assays here: Tags and fused reporters may be left off the sequences shown. Each block holds one binder with its values, some of them ahead of it.

Sequences of proteins named here, by UniProt entry; tags and fusion partners are left off.
UniProt Q86WV6: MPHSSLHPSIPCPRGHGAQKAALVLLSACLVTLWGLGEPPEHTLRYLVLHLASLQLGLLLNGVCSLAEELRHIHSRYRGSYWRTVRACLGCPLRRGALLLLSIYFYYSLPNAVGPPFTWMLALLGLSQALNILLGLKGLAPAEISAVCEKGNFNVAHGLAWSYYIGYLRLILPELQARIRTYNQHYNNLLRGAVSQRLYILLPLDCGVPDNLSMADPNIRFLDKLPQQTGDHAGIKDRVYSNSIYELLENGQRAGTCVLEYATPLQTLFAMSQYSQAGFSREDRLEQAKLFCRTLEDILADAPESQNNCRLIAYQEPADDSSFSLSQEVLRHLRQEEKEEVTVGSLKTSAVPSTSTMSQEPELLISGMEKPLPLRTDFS
UniProt Q8N884: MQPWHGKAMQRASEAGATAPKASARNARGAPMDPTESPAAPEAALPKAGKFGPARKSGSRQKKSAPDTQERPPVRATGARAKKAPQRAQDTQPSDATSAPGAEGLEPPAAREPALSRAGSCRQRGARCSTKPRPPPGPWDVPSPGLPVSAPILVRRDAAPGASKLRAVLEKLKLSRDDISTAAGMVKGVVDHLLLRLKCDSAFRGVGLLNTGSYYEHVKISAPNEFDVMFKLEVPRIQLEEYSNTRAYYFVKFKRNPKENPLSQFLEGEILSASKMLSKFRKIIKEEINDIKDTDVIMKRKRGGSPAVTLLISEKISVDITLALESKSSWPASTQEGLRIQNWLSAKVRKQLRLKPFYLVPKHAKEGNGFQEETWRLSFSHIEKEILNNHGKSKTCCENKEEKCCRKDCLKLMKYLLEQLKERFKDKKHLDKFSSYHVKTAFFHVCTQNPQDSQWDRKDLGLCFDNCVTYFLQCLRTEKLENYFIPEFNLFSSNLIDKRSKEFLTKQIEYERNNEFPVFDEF

What was measured:
HA-STING = HA-STING (UniProt Q86WV6); assay: co-IP; HEK293 cells transfected 24 h with HA-STING (or STING truncates) and FLAG-tagged USP13 (or USP13 truncates); IP with anti-HA, blot with anti-FLAG or anti-HA
[1] = biological target: STING, overexpressed (Supplementary Figs 6a and 9c), Q86WV6; assay: co-IP; association of TBK1 with STING or MAVS, with overexpression of USP13 (Supplementary Fig. 9c; legend not shown); details: remark: other sources report otherwise
[2] = biological target: STING, endogenous in THP-1 cells (human (endogenous in THP-1)), Q86WV6; assay: co-IP; endogenous proteins; IP with anti-STING, blot with anti-TBK1; THP-1 cells stably transfected with shUSP13 or shCon, HSV-1 0-12 h; Usp13+/+ and Usp13m/m BMDCs, HSV-1 0-10 h; details: remark: other sources report otherwise
IRF3 = biological target: T1, IRF3 (UniProt Q14653); assay: co-IP; overexpression system, coexpressed in HEK293 cells (Supplementary Fig. 6b,c; legend not shown)
T1 sequence: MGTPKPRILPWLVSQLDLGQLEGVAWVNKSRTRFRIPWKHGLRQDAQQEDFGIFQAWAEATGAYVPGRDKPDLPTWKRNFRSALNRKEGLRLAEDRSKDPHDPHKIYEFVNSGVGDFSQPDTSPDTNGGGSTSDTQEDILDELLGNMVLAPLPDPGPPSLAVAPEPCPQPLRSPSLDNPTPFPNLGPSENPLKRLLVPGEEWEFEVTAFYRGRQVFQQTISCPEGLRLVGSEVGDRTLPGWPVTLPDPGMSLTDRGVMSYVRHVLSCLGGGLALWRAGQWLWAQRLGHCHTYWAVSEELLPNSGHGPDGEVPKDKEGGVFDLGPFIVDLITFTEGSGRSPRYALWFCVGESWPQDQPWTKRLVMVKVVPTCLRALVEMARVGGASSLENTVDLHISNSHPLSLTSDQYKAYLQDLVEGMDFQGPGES

[3] = biological target: cyclic GMP-AMP synthase (cGAS) (UniProt Q8N884); assay: as above
[4] = biological target: T2, STING, endogenous in mouse BMDCs and MEFs (mouse (endogenous in BMDCs and MEFs)) (UniProt Q3TBT3); assay: co-IP; endogenous proteins; IP with anti-STING, blot with anti-USP13; mouse BMDCs and MEFs after HSV-1 infection
T2 sequence: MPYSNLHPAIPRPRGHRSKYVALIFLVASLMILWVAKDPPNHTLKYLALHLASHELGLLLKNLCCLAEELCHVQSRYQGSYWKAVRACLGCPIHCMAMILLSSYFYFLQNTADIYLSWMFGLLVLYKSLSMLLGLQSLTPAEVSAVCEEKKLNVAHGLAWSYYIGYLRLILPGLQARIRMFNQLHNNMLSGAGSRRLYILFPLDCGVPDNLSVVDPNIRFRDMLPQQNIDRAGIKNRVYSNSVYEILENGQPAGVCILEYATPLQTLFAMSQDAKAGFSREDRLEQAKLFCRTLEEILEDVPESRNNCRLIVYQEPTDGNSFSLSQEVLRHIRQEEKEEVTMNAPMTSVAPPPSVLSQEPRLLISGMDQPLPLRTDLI

[5] = biological target: T2, STING, endogenous in mouse BMDCs and MEFs (mouse (endogenous in BMDCs and MEFs)); assay: co-IP; endogenous proteins; IP with anti-STING (IgG as control), blot with anti-STING or anti-USP13; mouse BMDCs and MEFs without viral infection

B1: FLAG-tagged USP13 truncate, C-terminal domain (aa625-863) (domain or fragment, UniProt Q92995 625-863)
chain: ELPDISPPIVIPDDSKDRLMNQLIDPSDIDESSVMQLAEMGFPLEACRKAVYFTGNMGAEVAFNWIIVHMEEPDFAEPLTMPGYGGAASAGASVFGASGLDNQPPEEIVAIITSMGFQRNQAIQALRATNNNLERALDWIFSHPEFEEDSDFVIEMENNANANIISEAKPEGPRVKDGSGTYELFAFISHMGTSTMSGHYICHIKKEGRWVIYNDHKVCASERPPKDLGYMYFYRRIPS
binding (HA-STING): binds

B3: TBK1 (Supplementary Fig. 9c), Q9UHD2 1-729 (enzyme)
chain: MQSTSNHLWLLSDILGQGATANVFRGRHKKTGDLFAIKVFNNISFLRPVDVQMREFEVLKKLNHKNIVKLFAIEEETTTRHKVLIMEFCPCGSLYTVLEEPSNAYGLPESEFLIVLRDVVGGMNHLRENGIVHRDIKPGNIMRVIGEDGQSVYKLTDFGAARELEDDEQFVSLYGTEEYLHPDMYERAVLRKDHQKKYGATVDLWSIGVTFYHAATGSLPFRPFEGPRRNKEVMYKIITGKPSGAISGVQKAENGPIDWSGDMPVSCSLSRGLQVLLTPVLANILEADQEKCWGFDQFFAETSDILHRMVIHVFSLQQMTAHKIYIHSYNTATIFHELVYKQTKIISSNQELIYEGRRLVLEPGRLAQHFPKTTEENPIFVVSREPLNTIGLIYEKISLPKVHPRYDLDGDASMAKAITGVVCYACRIASTLLLYQELMRKGIRWLIELIKDDYNETVHKKTEVVITLDFCIRNIEKTVKVYEKLMKINLEAAELGEISDIHTKLLRLSSSQGTIETSLQDIDSRLSPGGSLADAWAHQEGTHPKDRNVEKLQVLLNCMTEIYYQFKKDKAERRLAYNEEQIHKFDKQKLYYHATKAMTHFTDECVKKYEAFLNKSEEWIRKMLHLRKQLLSLTNQCFDIEEEVSKYQEYTNELQETLPQKMFTASSGIKHTMTPIYPSSNTLVEMTLGMKKLKEEMEGVVKELAENNHILERFGSLTMDGGLRNVDCL
binding [1]: binds

B4: TBK1, endogenous in THP-1 cells, Q9UHD2 1-729 (enzyme)
chain: MQSTSNHLWLLSDILGQGATANVFRGRHKKTGDLFAIKVFNNISFLRPVDVQMREFEVLKKLNHKNIVKLFAIEEETTTRHKVLIMEFCPCGSLYTVLEEPSNAYGLPESEFLIVLRDVVGGMNHLRENGIVHRDIKPGNIMRVIGEDGQSVYKLTDFGAARELEDDEQFVSLYGTEEYLHPDMYERAVLRKDHQKKYGATVDLWSIGVTFYHAATGSLPFRPFEGPRRNKEVMYKIITGKPSGAISGVQKAENGPIDWSGDMPVSCSLSRGLQVLLTPVLANILEADQEKCWGFDQFFAETSDILHRMVIHVFSLQQMTAHKIYIHSYNTATIFHELVYKQTKIISSNQELIYEGRRLVLEPGRLAQHFPKTTEENPIFVVSREPLNTIGLIYEKISLPKVHPRYDLDGDASMAKAITGVVCYACRIASTLLLYQELMRKGIRWLIELIKDDYNETVHKKTEVVITLDFCIRNIEKTVKVYEKLMKINLEAAELGEISDIHTKLLRLSSSQGTIETSLQDIDSRLSPGGSLADAWAHQEGTHPKDRNVEKLQVLLNCMTEIYYQFKKDKAERRLAYNEEQIHKFDKQKLYYHATKAMTHFTDECVKKYEAFLNKSEEWIRKMLHLRKQLLSLTNQCFDIEEEVSKYQEYTNELQETLPQKMFTASSGIKHTMTPIYPSSNTLVEMTLGMKKLKEEMEGVVKELAENNHILERFGSLTMDGGLRNVDCL
binding [2]: binds

B5: USP13, overexpressed (Supplementary Figs 6 and 9c) (enzyme, UniProt Q92995 1-863)
chain: MQRRGALFGMPGGSGGRKMAAGDIGELLVPHMPTIRVPRSGDRVYKNECAFSYDSPNSEGGLYVCMNTFLAFGREHVERHFRKTGQSVYMHLKRHVREKVRGASGGALPKRRNSKIFLDLDTDDDLNSDDYEYEDEAKLVIFPDHYEIALPNIEELPALVTIACDAVLSSKSPYRKQDPDTWENELPVSKYANNLTQLDNGVRIPPSGWKCARCDLRENLWLNLTDGSVLCGKWFFDSSGGNGHALEHYRDMGYPLAVKLGTITPDGADVYSFQEEEPVLDPHLAKHLAHFGIDMLHMHGTENGLQDNDIKLRVSEWEVIQESGTKLKPMYGPGYTGLKNLGNSCYLSSVMQAIFSIPEFQRAYVGNLPRIFDYSPLDPTQDFNTQMTKLGHGLLSGQYSKPPVKSELIEQVMKEEHKPQQNGISPRMFKAFVSKSHPEFSSNRQQDAQEFFLHLVNLVERNRIGSENPSDVFRFLVEERIQCCQTRKVRYTERVDYLMQLPVAMEAATNKDELIAYELTRREAEANRRPLPELVRAKIPFSACLQAFSEPENVDDFWSSALQAKSAGVKTSRFASFPEYLVVQIKKFTFGLDWVPKKFDVSIDMPDLLDINHLRARGLQPGEEELPDISPPIVIPDDSKDRLMNQLIDPSDIDESSVMQLAEMGFPLEACRKAVYFTGNMGAEVAFNWIIVHMEEPDFAEPLTMPGYGGAASAGASVFGASGLDNQPPEEIVAIITSMGFQRNQAIQALRATNNNLERALDWIFSHPEFEEDSDFVIEMENNANANIISEAKPEGPRVKDGSGTYELFAFISHMGTSTMSGHYICHIKKEGRWVIYNDHKVCASERPPKDLGYMYFYRRIPS
binding (IRF3): binds
binding [3]: binds

More lines, now with the values ahead:

binding (HA-STING): binds
B2: FLAG-tagged USP13 truncate, N-terminal domain (aa1-624) (domain or fragment, UniProt Q92995 1-624)
chain: MQRRGALFGMPGGSGGRKMAAGDIGELLVPHMPTIRVPRSGDRVYKNECAFSYDSPNSEGGLYVCMNTFLAFGREHVERHFRKTGQSVYMHLKRHVREKVRGASGGALPKRRNSKIFLDLDTDDDLNSDDYEYEDEAKLVIFPDHYEIALPNIEELPALVTIACDAVLSSKSPYRKQDPDTWENELPVSKYANNLTQLDNGVRIPPSGWKCARCDLRENLWLNLTDGSVLCGKWFFDSSGGNGHALEHYRDMGYPLAVKLGTITPDGADVYSFQEEEPVLDPHLAKHLAHFGIDMLHMHGTENGLQDNDIKLRVSEWEVIQESGTKLKPMYGPGYTGLKNLGNSCYLSSVMQAIFSIPEFQRAYVGNLPRIFDYSPLDPTQDFNTQMTKLGHGLLSGQYSKPPVKSELIEQVMKEEHKPQQNGISPRMFKAFVSKSHPEFSSNRQQDAQEFFLHLVNLVERNRIGSENPSDVFRFLVEERIQCCQTRKVRYTERVDYLMQLPVAMEAATNKDELIAYELTRREAEANRRPLPELVRAKIPFSACLQAFSEPENVDDFWSSALQAKSAGVKTSRFASFPEYLVVQIKKFTFGLDWVPKKFDVSIDMPDLLDINHLRARGLQPGEE

binding [4]: binds weakly
binding [5]: binds
B6: USP13, endogenous in mouse BMDCs and MEFs (enzyme, UniProt Q5BKP2 1-858)
chain: MQRRGALFSVPGGGGKMAAGDLGELLVPHMPTIRVPRSGDRVYKNECAFSYDSPNSEGGLYVCMNTFLAFGREHVERHFRKTGQSVYMHLKRHMREKVRGASGGALPKRRNSKIFLDLDMDDDLNSDDYEYEDEAKLVIFPDHYEIALPNIEELPALVTIACDAVLSSKSPYRKQDPDTWENEVPVSKYANNLVQLDNGVRIPPSGWKCARCDLRENLWLNLTDGSVLCGKWFFDSSGGNGHALEHYRDMGYPLAVKLGTITPDGADVYSFQEEGPVSDPHLAKHLAHFGIDMLHTQGTENGLRDNDIKPRVSEWEVIQESGTKLKPMYGPGYTGLKNLGNSCYLSSVMQAIFSIPEFQRAYVGNLPRIFDYSPLDPTQDFNTQMTKLGHGLLSGQYSKPPVKSELIEQVMKEEHKPQQNGISPRMFKAFVSKSHPEFSSNRQQDAQEFFLHLVNLVERNRIGSENPSDVFRFLVEERIQCCQTRKVRYTERVDYLMQLPVAMEAATNKDELITYELMRREAEANRRPLPELVRAKIPFSACLQAFAEPDNVDDFWSSALQAKSAGVKTSRFASFPEYLVVQIKKFTFGLDWVPRKFDVSIDMPDLLDISHLRARGLQPGEEELPDISPPIVIPDDSKDRLMNQLIDPSDIDESSVMQLAEMGFPLEACRKAVYFTGNTGAEVAFNWIIVHMEEPDFAEPLAIPGYGGAGASVFGATGLDNQPPEEIVAIITSMGFQRNQAVQALQATNHNLERALDWIFSHPEFEEDSDFVIEMENNANANIVSEAKPEGPRVKDGSGMYELFAFISHMGTSTMSGHYVCHIKKEGRWVIYNDHKVCASERPPKDLGYMYFYRRIPS
